Measurements: paper doi:10.1101/566687
Results are given in words; binding and its absence hold for the method and conditions named. Binding calls can cover weak binding; strength is not graded here. Tags and fused reporters may be left off the sequences shown.

Biological target: phyB PASII domain fused to DBD (yeast two-hybrid) (Arabidopsis thaliana)
Experiment: two-hybrid

B1: PCH1 fused to AD (yeast two-hybrid) (protein, UniProt Q84V03 1-778)
chain: MSEHVMVLGKGNKGISKNSSVNPYESAWLGRWTQSGSEVKFHDGETNCSKQLIRPEDENHGVEVLPFPMFKVSQKRETTTTTTTKPSFHEDVGSSSRAMVNRMPWMYPQGENFSSSNRLDFPIQEKTTQNLLELIRPVRIYATVDSVNLPKEDSHQLLKGSTVSMKLKGKIFGGYLDLFPNQDHSHNRGGVRLQSLESSKDTQEDGPRKNESSAETNTLEMDRLQTIHLSGSISSSSTKGKGIKGYSAIPRTEIPDMNEEPPLVPDRENSVDGHQGETSNSATQSMNVEHFLSRDCKRVRLEPEVEASSRWVKRLKTSPSDSSETKSMMKMKEASLGEKENNNLFLEILKSGINNLQPRNQEPVVSQSNDLRQGGDDITLLHPWIQRWCKKKTTSTDQPTGQEASFEPESHKEFEKKQYPSIAAMALMGKALSGLNPYGLRKTNSLMVWNARDLSFTYRSLRWNLTMADWPLLPNDLLELIMGHLETSFEIFLFRSVCSSWRSVVPPLDHSRCLGIKTHDISFNVGFSFNGRPTNEYCTLKKIPIYLVKFWTPFGDDYLLAEMRERNDGEPKLLLSPLSSNGIKYGMGINKVLFNSLTSPIIPFGQYYEITYIEKRPSEYRFGFPYKLEWVEITERVEFLKLDSEDSRDFAVLFAGRMCNLVMYRSRNMSWTQVVEHPEKYAYQDLVAFKGKFYAVDSSGRGRVFVVELSFEVTEIPSVGGSQQSSKESLVQSGEELLLVQRFTPVGRRYDEYIYIHGSECLDLMKKEERESGFKLMT
In the case of B1, the binding is reported as “binds”.
